The list shows a part of the results, in another mix than the full data. For some assays here: At the low end of the ranking, values are background and their order means little. The list shows a part of the results. For some assays here: Construct or isoform of the protein are uncertain.
These sequences were tested against T1, GABPA (UniProt Q06546) (assay: DAPPL (digital affinity profiling via proximity ligation, sequencing)). Conditions: 10 mM Tris-HCl pH 7.5, 50 mM NaCl, 1 mM DTT, 4% glycerol, room temperature, 30 min; GST-TFs on glutathione beads, 16-mer random dsDNA library, 0.1% …; high values mean tight binding; double strand, one strand shown; scale: fold enrichment (6-mer frequency, TF over GST control).
T1 sequence: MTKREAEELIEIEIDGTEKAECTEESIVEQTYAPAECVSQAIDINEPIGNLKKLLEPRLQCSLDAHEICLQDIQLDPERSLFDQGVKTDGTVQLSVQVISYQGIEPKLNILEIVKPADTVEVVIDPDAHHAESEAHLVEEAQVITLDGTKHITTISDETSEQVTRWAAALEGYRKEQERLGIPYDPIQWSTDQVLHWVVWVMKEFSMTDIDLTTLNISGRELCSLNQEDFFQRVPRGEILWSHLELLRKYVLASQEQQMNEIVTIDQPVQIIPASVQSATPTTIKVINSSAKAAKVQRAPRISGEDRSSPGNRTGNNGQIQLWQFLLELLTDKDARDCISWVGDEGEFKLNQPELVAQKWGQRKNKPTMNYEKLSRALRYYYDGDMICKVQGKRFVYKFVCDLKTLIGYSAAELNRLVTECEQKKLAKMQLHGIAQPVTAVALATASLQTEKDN

**Q.** How did the binding signal turn out when GTGTCT was run?
**A.** 0.949

**Q.** For TGGATA, which binding signal is on record?
**A.** 1.1

**Q.** For ATTGAG, which binding signal is on record?
**A.** 0.971

**Q.** Which binding signal does the source give for ACCCAC here?
**A.** 1.35

**Q.** Which binding signal does the source give for ACTAGG here?
**A.** 1.09

**Q.** For TCATTA, which binding signal is on record?
**A.** 1.07

**Q.** For CACGGA, which binding signal is on record?
**A.** 0.996

**Q.** For CCACCA, which binding signal is on record?
**A.** 0.984

**Q.** With CTTTGC as the sequence, how does the binding signal read?
**A.** 1.39

**Q.** With CCAAAC as the sequence, how does the binding signal read?
**A.** 1.15

**Q.** For TAGCTC, which binding signal is on record?
**A.** 1.2

**Q.** Which binding signal does the source give for CGCGAA here?
**A.** 1.01

**Q.** How did the binding signal turn out when TTTTTT was run?
**A.** 1.25

**Q.** For ATAGTT, which binding signal is on record?
**A.** 1.16

**Q.** Which binding signal does the source give for TTCACA here?
**A.** 1.23

**Q.** How did the binding signal turn out when GATTCA was run?
**A.** 1.17

**Q.** How did the binding signal turn out when CCACCT was run?
**A.** 1.1

**Q.** TGTTTC was tested. Which binding signal did it give?
**A.** 1.59

**Q.** For GGACCT, which binding signal is on record?
**A.** 1.41

**Q.** How did the binding signal turn out when ACCCTC was run?
**A.** 1.15

**Q.** Which binding signal does the source give for CCTTAC here?
**A.** 1.37

**Q.** TCGAGC was tested. Which binding signal did it give?
**A.** 0.919

**Q.** For TGAATG, which binding signal is on record?
**A.** 1.17

**Q.** With AAGCAT as the sequence, how does the binding signal read?
**A.** 1.14

**Q.** Which binding signal does the source give for GGCCTT here?
**A.** 1.29

**Q.** Which binding signal does the source give for ATACAC here?
**A.** 1.25

**Q.** With AGGATG as the sequence, how does the binding signal read?
**A.** 0.938

**Q.** For AATCTT, which binding signal is on record?
**A.** 1.28

**Q.** Which binding signal does the source give for TCGTTT here?
**A.** 1.28

**Q.** With CGACAG as the sequence, how does the binding signal read?
**A.** 0.99

**Q.** For GATGGG, which binding signal is on record?
**A.** 0.992

**Q.** For AAACAA, which binding signal is on record?
**A.** 1.2

**Q.** For AGATGA, which binding signal is on record?
**A.** 0.995

**Q.** For TAGATC, which binding signal is on record?
**A.** 0.979

**Q.** With AGCGCC as the sequence, how does the binding signal read?
**A.** 1.07

**Q.** With GTTGAC as the sequence, how does the binding signal read?
**A.** 1.19

**Q.** For ATAACC, which binding signal is on record?
**A.** 1.22

**Q.** Which binding signal does the source give for TTTTCT here?
**A.** 1.27

**Q.** For GATTCG, which binding signal is on record?
**A.** 0.959

**Q.** With GGTTCT as the sequence, how does the binding signal read?
**A.** 1.02

What follows are sequences tested against T2, ETS1 (UniProt P14921) in the same assay as above. Conditions: 10 mM Tris-HCl pH 7.5, 50 mM NaCl, 1 mM DTT, 4% glycerol, room temperature, 30 min; GST-TFs on glutathione beads, 16-mer random dsDNA library, 0.1% …; high values mean tight binding; double strand, one strand shown; scale: fold enrichment (6-mer frequency, TF over GST control).
T2 sequence: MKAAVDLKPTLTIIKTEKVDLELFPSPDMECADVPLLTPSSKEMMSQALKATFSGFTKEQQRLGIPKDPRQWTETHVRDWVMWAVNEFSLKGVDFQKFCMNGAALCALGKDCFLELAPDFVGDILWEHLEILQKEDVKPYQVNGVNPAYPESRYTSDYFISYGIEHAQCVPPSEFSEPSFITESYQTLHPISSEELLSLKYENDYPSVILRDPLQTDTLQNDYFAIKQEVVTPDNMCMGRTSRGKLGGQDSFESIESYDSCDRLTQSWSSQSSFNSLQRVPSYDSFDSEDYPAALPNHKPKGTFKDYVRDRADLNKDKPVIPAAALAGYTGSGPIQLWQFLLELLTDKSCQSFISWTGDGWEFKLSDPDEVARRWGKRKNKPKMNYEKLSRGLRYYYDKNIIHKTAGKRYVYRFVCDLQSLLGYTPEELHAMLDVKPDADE

**Q.** For GTGTCT, which binding signal is on record?
**A.** 1.1

**Q.** With TGGATA as the sequence, how does the binding signal read?
**A.** 1.14

**Q.** ATTGAG was tested. Which binding signal did it give?
**A.** 1.05

**Q.** For ACCCAC, which binding signal is on record?
**A.** 1.23

**Q.** Which binding signal does the source give for ACTAGG here?
**A.** 1

**Q.** How did the binding signal turn out when TCATTA was run?
**A.** 1.08

**Q.** How did the binding signal turn out when CACGGA was run?
**A.** 1.08

**Q.** For CCACCA, which binding signal is on record?
**A.** 1.03

**Q.** How did the binding signal turn out when CTTTGC was run?
**A.** 1.34

**Q.** For CCAAAC, which binding signal is on record?
**A.** 1.18

**Q.** For TAGCTC, which binding signal is on record?
**A.** 1.16

**Q.** Which binding signal does the source give for CGCGAA here?
**A.** 1.07

**Q.** For TTTTTT, which binding signal is on record?
**A.** 1.24

**Q.** For ATAGTT, which binding signal is on record?
**A.** 1.16

**Q.** Which binding signal does the source give for TTCACA here?
**A.** 1.22

**Q.** With GATTCA as the sequence, how does the binding signal read?
**A.** 1.11

**Q.** For CCACCT, which binding signal is on record?
**A.** 1.1

**Q.** TGTTTC was tested. Which binding signal did it give?
**A.** 1.86

**Q.** How did the binding signal turn out when GGACCT was run?
**A.** 1.43

**Q.** Which binding signal does the source give for ACCCTC here?
**A.** 1.19

**Q.** CCTTAC was tested. Which binding signal did it give?
**A.** 1.37

**Q.** For TCGAGC, which binding signal is on record?
**A.** 1.12

**Q.** For TGAATG, which binding signal is on record?
**A.** 1.38

**Q.** How did the binding signal turn out when AAGCAT was run?
**A.** 1.06

**Q.** For GGCCTT, which binding signal is on record?
**A.** 1.21

**Q.** Which binding signal does the source give for ATACAC here?
**A.** 1.19

**Q.** With AGGATG as the sequence, how does the binding signal read?
**A.** 1.07

**Q.** AATCTT was tested. Which binding signal did it give?
**A.** 1.4

**Q.** TCGTTT was tested. Which binding signal did it give?
**A.** 1.18

**Q.** With CGACAG as the sequence, how does the binding signal read?
**A.** 0.953

**Q.** How did the binding signal turn out when GATGGG was run?
**A.** 1.04

**Q.** AAACAA was tested. Which binding signal did it give?
**A.** 1.29

**Q.** Which binding signal does the source give for AGATGA here?
**A.** 1.1

**Q.** TAGATC was tested. Which binding signal did it give?
**A.** 1.14

**Q.** How did the binding signal turn out when AGCGCC was run?
**A.** 1.08

**Q.** How did the binding signal turn out when GTTGAC was run?
**A.** 1.09

**Q.** With ATAACC as the sequence, how does the binding signal read?
**A.** 1.14

**Q.** TTTTCT was tested. Which binding signal did it give?
**A.** 1.42

**Q.** How did the binding signal turn out when GATTCG was run?
**A.** 1.07

**Q.** Which binding signal does the source give for GGTTCT here?
**A.** 0.979

Source: paper PMC7862700
